In article PMC8458909:
No constants are given. Whether binding was seen depends on the method and setting. Binding seen in cells or lysates may run through a third protein. Some binding calls cover weakened binding; strength is not graded here.

Chains of the proteins cited; added tags and fusions are not shown.
UniProt Q86XT4: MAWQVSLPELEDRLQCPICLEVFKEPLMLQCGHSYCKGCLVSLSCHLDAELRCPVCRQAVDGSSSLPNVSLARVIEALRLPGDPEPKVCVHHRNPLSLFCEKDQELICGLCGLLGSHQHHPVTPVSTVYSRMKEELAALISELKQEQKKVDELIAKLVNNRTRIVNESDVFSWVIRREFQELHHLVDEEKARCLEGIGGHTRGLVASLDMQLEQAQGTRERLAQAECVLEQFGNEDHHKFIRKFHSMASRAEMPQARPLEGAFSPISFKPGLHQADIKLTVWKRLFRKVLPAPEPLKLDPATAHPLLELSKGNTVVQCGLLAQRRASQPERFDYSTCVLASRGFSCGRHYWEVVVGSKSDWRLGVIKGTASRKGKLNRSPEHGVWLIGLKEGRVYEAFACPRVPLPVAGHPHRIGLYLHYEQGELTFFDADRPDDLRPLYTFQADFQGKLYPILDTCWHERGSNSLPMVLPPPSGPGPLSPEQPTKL
UniProt O95863: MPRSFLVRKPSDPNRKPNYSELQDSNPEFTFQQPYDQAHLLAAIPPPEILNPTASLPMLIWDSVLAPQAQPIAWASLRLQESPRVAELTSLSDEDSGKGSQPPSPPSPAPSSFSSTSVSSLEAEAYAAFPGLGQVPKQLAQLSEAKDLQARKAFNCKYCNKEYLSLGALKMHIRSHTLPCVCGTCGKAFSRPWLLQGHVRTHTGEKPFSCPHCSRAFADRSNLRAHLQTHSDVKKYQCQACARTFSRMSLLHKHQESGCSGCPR

Biological target: HA-tagged TRIM50 (tripartite motif-containing 50) (human) (UniProt Q86XT4)
Assay: co-IP; lysates of BxPC-3 and Patu8988 cells transfected with HA-tagged TRIM50 (48 hours); anti-HA (2 ug) 30 minutes at RT, Protein-A/G magnetic beads 30 minutes at RT, washed three times with TBS-T; anti-IgG as negative control; blot with a Snail1 antibody

Snail family transcriptional repressor 1 (Snail1) (from UniProt O95863 1-264)
binding: binds
